Laboratory results published in US20160347801A1 (NATIONAL CANCER CENTER, published 2016).
Results are given in words; binding and its absence hold for the method and conditions named. Some binding calls cover weakened binding; strength is not graded here. Sequences can lack the tags named with a protein.

Legend:
GST-PLK1 [1] = molecular target: GST-PLK1 (UniProt P53350); experiment: immunoprecipitation with Flag or GST bead, immunoblot (legend of FIGS. 7A to 7D)
GST-PLK1 [2] = molecular target: GST-PLK1 (UniProt P53350); experiment: reciprocal pull-down with Flag and GST beads from transfected cells, immunoblot

binding (GST-PLK1 [1]): binds | binding (GST-PLK1 [2]): binds
B1: Flag-NCAPG2 (full-length, wild type) (protein, not shown: small tags and cut ends)
chain: MEKRETFVQAVSKELVGEFLQFVQLDKEASDPFSLNELLDELSRKQKEELWQRLKNLLTDVLLESPVDGWQVVEAQGEDNMETEHGSKMRKSIEIIYAITSVILASVSVINESENYEALLECVIILNGILYALPESERKLQSSIQDLCVTWWEKGLPAKEDTGKTAFVMLLRRSLETKTGADVCRLWRIHQALYCFDYDLEESGEIKDMLLECFININYIKKEEGRRFLSCLFNWNINFIKMIHGTIKNQLQGLQKSLMVYIAEIYFRAWKKASGKILEAIENDCIQDFMFHGIHLPRRSPVHSKVREVLSYFHHQKKVRQGVEEMLYRLYKPILWRGLKARNSEVRSNAALLFVEAFPIRDPNLHAIEMDSEIQKQFEELYSLLEDPYPMVRSTGILGVCKITSKYWEMMPPTILIDLLKKVTGELAFDTSSADVRCSVFKCLPMILDNKLSHPLLEQLLPALRYSLHDNSEKVRVAFVDMLLKIKAVRAAKFWKICPMEHILVRLETDSRPVSRRLVSLIFNSFLPVNQPEEVWCERCVTLVQMNHAAARRFYQYAHEHTACTNIAKLIHVIRHCLNACIQRAVREPPEDEEEEDGREKENVTVLDKTLSVNDVACMAGLLEIIVILWKSIDRSMENNKEAKLYTINKFASVLPEYLKVFKDDRCKIPLFMLMSFMPASAVPPFSCGVISTLRSREEGAVDKSYCTLLDCLCSWGQVGHILELVDNWLPTEHAQAKSNTASKGRVQIHDTRPVKPELALVYIEYLLTHPKNRECLLSAPRKKLNHLLKALETSKADLESLLQTPGGKPRGFSEAAAPRAFGLHCRLSIHLQHKFCSEGKVYLSMLEDTGFWLESKILSFIQDQEEDYLKLHRVIYQQIIQTYLTVCKDVVMVGLGDHQFQMQLLQRSLGIMQTVKGFFYVSLLLDILKEITGSSLIQKTDSDEEVAMLLDTVQKVFQKMLECIARSFRKQPEEGLRLLYSVQRPLHEFITAVQSRHTDTPVHRGVLSTLIAGPVVEISHQLRKVSDVEELTPPEHLSDLPPFSRCLIGIIIKSSNVVRSFLDELKACVASNDIEGIVCLTAAVHIILVINAGKHKSSKVREVAATVHRKLKTFMEITLEEDSIERFLYESSSRTLGELLNS
